Results taken from the supplement of paper PMC12819154, “High-throughput peptide-centric local stability assay extends protein–ligand identification to membrane proteins, tissues and bacteria” (Nature Structural & Molecular Biology, 2025).
Some of the results follow. Small differences around the control level are noise.

The chains behind the UniProt entries cited, without tags or fusion partners. Where a name states a change or a piece, a line headed by the entry shows the natural chain unless it says otherwise.
UniProt O55003, whole entry: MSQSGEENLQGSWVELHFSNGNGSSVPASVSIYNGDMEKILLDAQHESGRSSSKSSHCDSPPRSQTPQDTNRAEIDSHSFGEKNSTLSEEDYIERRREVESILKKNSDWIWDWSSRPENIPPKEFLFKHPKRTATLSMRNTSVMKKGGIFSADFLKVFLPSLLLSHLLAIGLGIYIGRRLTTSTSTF
UniProt O54754: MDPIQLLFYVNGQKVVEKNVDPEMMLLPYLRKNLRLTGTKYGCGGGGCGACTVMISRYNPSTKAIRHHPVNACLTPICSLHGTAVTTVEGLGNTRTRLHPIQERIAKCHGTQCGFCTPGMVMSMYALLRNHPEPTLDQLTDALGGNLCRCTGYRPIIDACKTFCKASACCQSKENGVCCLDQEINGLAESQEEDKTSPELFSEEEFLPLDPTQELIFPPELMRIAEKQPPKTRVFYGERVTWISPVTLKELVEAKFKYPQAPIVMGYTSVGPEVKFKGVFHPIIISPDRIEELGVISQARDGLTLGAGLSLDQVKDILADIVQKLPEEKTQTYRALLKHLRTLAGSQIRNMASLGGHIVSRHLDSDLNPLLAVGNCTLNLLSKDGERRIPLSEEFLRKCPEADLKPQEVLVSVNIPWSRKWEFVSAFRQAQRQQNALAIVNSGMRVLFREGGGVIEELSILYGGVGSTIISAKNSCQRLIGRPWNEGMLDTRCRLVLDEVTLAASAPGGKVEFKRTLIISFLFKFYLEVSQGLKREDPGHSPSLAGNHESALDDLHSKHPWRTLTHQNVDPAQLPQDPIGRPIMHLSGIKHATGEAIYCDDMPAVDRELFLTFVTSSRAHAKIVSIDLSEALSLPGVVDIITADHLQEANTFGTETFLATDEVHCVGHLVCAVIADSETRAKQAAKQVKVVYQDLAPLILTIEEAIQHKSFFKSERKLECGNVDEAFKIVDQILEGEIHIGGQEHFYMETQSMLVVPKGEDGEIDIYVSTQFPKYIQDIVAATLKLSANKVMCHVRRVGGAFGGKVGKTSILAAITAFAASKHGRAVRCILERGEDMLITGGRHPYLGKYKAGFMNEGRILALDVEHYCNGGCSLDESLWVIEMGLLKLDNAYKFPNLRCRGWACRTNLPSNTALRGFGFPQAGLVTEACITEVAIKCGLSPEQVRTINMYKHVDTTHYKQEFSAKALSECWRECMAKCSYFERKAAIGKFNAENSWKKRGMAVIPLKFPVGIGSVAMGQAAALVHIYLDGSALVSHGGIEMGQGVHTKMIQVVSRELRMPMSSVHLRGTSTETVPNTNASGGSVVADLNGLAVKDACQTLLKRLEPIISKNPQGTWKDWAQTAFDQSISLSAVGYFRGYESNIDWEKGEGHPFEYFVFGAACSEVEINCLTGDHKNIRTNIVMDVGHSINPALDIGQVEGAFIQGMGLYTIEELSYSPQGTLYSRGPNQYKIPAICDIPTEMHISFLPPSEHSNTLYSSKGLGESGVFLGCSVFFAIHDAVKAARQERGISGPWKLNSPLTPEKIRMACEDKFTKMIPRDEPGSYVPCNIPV
UniProt O70585: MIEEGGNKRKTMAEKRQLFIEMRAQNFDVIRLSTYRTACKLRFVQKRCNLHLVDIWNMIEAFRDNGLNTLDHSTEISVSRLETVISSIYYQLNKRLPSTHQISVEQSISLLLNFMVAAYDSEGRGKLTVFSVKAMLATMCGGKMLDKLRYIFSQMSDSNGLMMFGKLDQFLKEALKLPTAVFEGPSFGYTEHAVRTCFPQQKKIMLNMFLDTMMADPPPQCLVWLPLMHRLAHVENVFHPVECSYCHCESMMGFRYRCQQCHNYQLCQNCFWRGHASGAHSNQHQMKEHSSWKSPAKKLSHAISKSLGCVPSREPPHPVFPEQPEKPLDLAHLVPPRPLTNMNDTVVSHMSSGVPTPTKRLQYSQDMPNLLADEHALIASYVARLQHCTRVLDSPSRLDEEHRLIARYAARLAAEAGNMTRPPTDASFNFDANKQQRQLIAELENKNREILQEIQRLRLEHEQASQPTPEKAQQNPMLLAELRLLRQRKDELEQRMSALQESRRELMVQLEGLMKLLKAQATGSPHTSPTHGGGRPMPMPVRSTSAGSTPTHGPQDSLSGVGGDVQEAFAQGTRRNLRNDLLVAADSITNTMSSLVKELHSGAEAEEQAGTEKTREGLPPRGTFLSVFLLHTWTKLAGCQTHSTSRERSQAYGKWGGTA
UniProt O70338: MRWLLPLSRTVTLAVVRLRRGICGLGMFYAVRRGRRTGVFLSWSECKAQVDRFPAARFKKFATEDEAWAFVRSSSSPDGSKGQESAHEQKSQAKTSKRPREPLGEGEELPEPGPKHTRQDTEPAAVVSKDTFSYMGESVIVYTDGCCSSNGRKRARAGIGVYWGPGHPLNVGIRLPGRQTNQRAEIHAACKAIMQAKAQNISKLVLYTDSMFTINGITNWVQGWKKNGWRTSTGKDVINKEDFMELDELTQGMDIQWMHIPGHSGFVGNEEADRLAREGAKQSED
UniProt O88441: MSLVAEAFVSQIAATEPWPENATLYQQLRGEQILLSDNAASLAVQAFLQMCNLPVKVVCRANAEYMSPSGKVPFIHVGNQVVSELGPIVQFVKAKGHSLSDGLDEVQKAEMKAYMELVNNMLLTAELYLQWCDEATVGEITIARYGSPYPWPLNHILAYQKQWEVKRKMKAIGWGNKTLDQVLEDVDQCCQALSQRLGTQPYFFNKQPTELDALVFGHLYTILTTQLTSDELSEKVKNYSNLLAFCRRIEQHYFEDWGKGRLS
UniProt O70458: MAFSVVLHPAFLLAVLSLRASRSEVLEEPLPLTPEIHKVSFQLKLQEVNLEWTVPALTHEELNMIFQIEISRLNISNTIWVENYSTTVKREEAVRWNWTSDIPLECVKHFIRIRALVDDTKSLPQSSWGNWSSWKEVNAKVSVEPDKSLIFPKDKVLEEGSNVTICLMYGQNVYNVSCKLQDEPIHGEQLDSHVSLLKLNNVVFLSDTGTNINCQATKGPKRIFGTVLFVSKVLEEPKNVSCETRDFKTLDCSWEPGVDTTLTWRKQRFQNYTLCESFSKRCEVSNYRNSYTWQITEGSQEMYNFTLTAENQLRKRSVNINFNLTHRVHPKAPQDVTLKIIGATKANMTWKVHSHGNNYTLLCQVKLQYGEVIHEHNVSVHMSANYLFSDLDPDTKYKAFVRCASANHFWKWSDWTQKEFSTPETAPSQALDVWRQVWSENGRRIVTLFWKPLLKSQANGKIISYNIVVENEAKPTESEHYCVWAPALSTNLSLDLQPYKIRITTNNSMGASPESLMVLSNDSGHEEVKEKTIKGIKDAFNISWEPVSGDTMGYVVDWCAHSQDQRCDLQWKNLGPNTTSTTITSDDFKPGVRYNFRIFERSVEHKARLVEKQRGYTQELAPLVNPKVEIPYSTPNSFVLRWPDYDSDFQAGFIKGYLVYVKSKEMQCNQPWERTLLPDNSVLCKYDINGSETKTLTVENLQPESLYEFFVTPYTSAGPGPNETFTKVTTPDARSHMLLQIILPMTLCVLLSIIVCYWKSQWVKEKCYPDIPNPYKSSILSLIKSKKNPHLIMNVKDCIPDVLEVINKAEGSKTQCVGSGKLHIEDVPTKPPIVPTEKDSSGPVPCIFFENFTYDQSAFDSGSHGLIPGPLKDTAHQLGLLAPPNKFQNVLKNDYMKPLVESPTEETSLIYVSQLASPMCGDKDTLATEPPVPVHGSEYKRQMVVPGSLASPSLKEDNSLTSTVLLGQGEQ
UniProt O35607: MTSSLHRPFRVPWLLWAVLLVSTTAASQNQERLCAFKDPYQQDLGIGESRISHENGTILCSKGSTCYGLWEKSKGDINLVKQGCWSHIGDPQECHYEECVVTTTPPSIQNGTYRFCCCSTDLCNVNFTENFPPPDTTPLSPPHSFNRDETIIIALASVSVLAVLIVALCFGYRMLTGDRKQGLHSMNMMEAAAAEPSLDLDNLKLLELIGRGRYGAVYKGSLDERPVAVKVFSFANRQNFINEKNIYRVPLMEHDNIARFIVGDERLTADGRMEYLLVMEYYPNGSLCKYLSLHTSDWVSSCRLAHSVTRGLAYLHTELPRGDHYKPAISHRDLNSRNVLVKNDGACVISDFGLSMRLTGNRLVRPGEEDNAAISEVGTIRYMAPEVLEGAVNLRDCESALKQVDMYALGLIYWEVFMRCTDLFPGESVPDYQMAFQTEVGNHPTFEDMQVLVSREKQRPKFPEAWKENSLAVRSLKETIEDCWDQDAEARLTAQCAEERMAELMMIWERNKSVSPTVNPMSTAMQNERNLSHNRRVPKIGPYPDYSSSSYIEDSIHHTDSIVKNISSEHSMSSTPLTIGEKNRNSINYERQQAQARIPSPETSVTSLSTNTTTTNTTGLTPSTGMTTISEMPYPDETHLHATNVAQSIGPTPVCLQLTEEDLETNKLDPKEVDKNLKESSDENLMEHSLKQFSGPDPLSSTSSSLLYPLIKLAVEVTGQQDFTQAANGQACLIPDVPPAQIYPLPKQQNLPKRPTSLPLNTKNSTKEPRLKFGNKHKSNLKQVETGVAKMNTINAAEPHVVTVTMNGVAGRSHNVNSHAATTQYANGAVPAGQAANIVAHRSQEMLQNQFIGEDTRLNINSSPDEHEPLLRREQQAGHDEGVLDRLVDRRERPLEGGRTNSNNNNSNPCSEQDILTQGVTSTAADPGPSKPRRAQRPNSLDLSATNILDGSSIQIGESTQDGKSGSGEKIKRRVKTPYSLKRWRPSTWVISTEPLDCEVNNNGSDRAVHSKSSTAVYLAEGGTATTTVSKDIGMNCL
UniProt O55176: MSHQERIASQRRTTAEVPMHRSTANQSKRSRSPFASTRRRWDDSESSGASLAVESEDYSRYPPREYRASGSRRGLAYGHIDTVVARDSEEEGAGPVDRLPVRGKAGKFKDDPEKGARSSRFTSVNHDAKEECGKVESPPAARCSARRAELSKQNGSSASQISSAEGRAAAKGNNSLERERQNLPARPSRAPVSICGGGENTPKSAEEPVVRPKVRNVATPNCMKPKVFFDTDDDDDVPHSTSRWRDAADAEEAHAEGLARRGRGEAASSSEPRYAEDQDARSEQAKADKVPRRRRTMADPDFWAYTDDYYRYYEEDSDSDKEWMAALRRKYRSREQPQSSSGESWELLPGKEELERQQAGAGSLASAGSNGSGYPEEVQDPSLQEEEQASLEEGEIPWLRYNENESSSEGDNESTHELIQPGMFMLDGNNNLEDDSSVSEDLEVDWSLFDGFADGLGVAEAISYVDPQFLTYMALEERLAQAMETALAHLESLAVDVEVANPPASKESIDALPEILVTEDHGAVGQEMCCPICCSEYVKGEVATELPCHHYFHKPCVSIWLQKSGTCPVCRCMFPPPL

The targets below were run with CN[C@@H]1C[C@H]2O[C@@](C)([C@@H]1OC)n1c3ccccc3c3c4c(c5c6ccccc6n2c5c31)C(=O)NC4 [staurosporine] (assay: log2 fold change of tryptic peptide abundance, ligand vs vehicle (limited proteolysis) (log2 ratio); higher = more trypsin-susceptible (destabilized)). Settings: ligand concentration: 20 uM; sample: mouse liver crude lysate; replicate design: treated separately.

Row | Target | log2 fold change
1 | UniProt O55003 (peptide sequence: NSTLSEEDYIERR, peptide start residue: 84) | -0.219
2 | UniProt O54754 (peptide sequence: VTWISPVTLK, peptide start residue: 240) | 0.176
3 | UniProt O70585 (peptide sequence: LRLEHEQASQPTPEK, peptide start residue: 457) | -0.246
4 | UniProt O70338 (peptide sequence: AEIHAACK, peptide start residue: 184) | 0.247
5 | UniProt O88441 (peptide sequence: RIEQHYFEDWGK, peptide start residue: 248) | -0.366
6 | UniProt O70458 (peptide sequence: LHIEDVPTKPPIVPTEK, peptide start residue: 822) | -0.512
7 | UniProt O35607 (peptide sequence: NISSEHSMSSTPLTIGEK, peptide start residue: 565) | -0.234
8 | UniProt O55176 (peptide sequence: TTAEVPMHR, peptide start residue: 13) | 0.182
